Reference: US20190307818A1, “NOVEL ANTIMICROBIAL COMPOSITIONS AND METHODS OF USE” (priority 2016, published 2019)
Some results were stated once for a whole list of compounds, not compound by compound.

Amino acid sequences for entries named in this document (tags omitted). A change or cut given only in a name is not applied to a line headed by its entry.
UniProt P25084: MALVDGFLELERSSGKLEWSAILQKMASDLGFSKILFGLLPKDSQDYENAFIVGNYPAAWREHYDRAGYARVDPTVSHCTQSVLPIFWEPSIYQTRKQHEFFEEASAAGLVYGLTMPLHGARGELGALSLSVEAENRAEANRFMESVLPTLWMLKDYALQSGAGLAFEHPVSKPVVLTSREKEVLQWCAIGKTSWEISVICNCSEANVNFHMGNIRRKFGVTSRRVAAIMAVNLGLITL

Molecular target: T1, LasR (Pseudomonas aeruginosa, UniProt P25084)
T1 construct: expressed in transfected cells; host or cells: E. coli TOP10 carrying pBAD-A 6xHIS-lasR and pCS26 plasB-luxCDABE
Experiment: DNA-binding assay (electrophoretic mobility shift assay) of LasR
Parameters: species or system P. aeruginosa
Conditions: 100 μM inhibitor, 15 min; LasR bound to 3-O—C12-HSL; 0, 12.5, 25 nM LasR

SMILES | reduction of the affinity of LasR for DNA
O=C(CCc1ccc(O)cc1)c1c(O)cc(O)cc1O [Molecule 1, Phloretin] | at least 50%
O=c1cc(-c2ccccc2)oc2cc(O)cc(O)c12 [Molecule 3, Chrysin] | at least 50%
O=c1cc(-c2ccccc2)oc2cc(O)c(O)c(O)c12 [Molecule 46, Baicalein] | at least 50%
